# At least one read-out could not be matched to a standard name with certainty. At least one structure is not confirmed: it was looked up by name or label, or the drawing left a doubt.
# Test: Application recovery of prothioconazole (free prothioconazole in tank mix, HPLC)
# Format: physicochemical
# [1] = tank mix of comparative Example 6 with de-complexing agent, 0.1% in tank mix
# [2] = tank mix of comparative Example 6 with de-complexing agent, 0.5% in tank mix
Application recovery Prothioconazole [1] [%],Application recovery Prothioconazole [2] [%],"Application recovery Prothioconazole (tank mix of liquid composition Example 7 (SC) with de-complexing agent, 0.1% in tank mix) [%]","Application recovery Prothioconazole (tank mix of liquid composition Example 7 (SC) with de-complexing agent, 0.5% in tank mix) [%]",SMILES
74,97,–,–,N[C@@H](Cc1ccccc1)C(=O)O [Phenylanaline]
72,94,40,93,NCC(=O)NCC(=O)O [Glycylglycine]
75,98,–,–,N[C@@H](CCC(=O)O)C(=O)O [Glutamic acid]

# Reference: patent US20240114907A1, “STABILIZED CONAZOLE COMPOSITION” (UPL CORPORATION LIMITED, priority 2019, published 2024)
